# Measured values: the supplement of paper PMC8728848
# This is one part of the list.
# B1: FimA (Actinomyces oris) (protein)
# chain: MHHHHHHSSGVDLGTENLYFQSNAETPNYGNIKTDATGSLVIHKHLTGGGKDIGTPTGTAQNADDKGPAVEGVVFTAYPITDINLKDPAGWDTISNLSRTGVPDSACANPAAPTLGAHQFGTPKVSPATTKEGLATITEMPVQAYLVCETTTPGDIVQKAKPFVVTIPHPNTAAGADGQWIYDVNVYPKNEAIDVDKTIQAQKLNGYGVGSLIKFPVESTAPTLDAKSFYKYFQLKDTLDERLSEVTATDVSLEGTPLQPTDYKVETKQQTVTVTFTAEGLKKIKAAPGKKVSAVFQGKVTKAGNGAITNRAQVISDTLYAEQPPTPETPPTDPENPPTSDEVISRWGDLSIKKVDTHQQGQTKAGLQGAQFQLYKAKNAYANTCSNEKEGAPIAINGQTTLTTDAQGAIDIKGLFISDSIDGADRDNQVNAMERCYVLVETKAPAGYVLPAGNGAATPVKVKAGEETTDNVTVENTKQSVPGLPLTG
# Tests used:
# Test in all cases: glycan array binding signal (z-score within array); higher = stronger binding
# Settings in all cases: glycan notation: IUPAC condensed, linker removed
# [1] = biological target: GlcNAc(b1-3)Man
# Outline: (§1)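 Negative Z-scores can be read as non-binding. The Z-score is calculated within each array and then averaged across arrays of one protein sequence at different concentrations or buffers and across linkers. Arrays, 3228 in all, were curated from the Consortium for Functional Glycomics database and kept only where the protein sequence was available.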
# [2] = biological target: GlcNAc(b1-3)[GlcNAc(b1-4)][GlcNAc(b1-6)]GlcNAc
# Outline: as §1
# [3] = biological target: GlcNAc(b1-3)[GlcNAc(b1-6)]Gal(b1-4)GlcNAc
# Outline: as §1
# [4] = biological target: GlcNAc(b1-3)[GlcNAc(b1-6)]GalNAc
# Outline: as §1
# [5] = biological target: GlcNAc(b1-4)Gal(b1-4)GlcNAc
# Outline: as §1
# [6] = biological target: GlcNAc(b1-4)GlcNAc
# Outline: as §1
# [7] = biological target: GlcNAc(b1-4)GlcNAc(b1-4)GlcNAc
# Outline: as §1
# [8] = biological target: GlcNAc(b1-4)GlcNAc(b1-4)GlcNAc(b1-4)GlcNAc(b1-4)GlcNAc
# Outline: as §1
# [9] = biological target: GlcNAc(b1-4)GlcNAc(b1-4)GlcNAc(b1-4)GlcNAc(b1-4)GlcNAc(b1-4)GlcNAc
# Outline: as §1
# [10] = biological target: GlcNAc(b1-4)[GlcNAc(b1-6)]GalNAc
# Outline: as §1
# [11] = biological target: GlcNAc(b1-6)Gal(b1-4)GlcNAc
# Outline: as §1
# [12] = biological target: GlcNAc(b1-6)GalNAc
# Outline: as §1
# [13] = biological target: GlcNAc6S(b1-3)Gal(b1-4)GlcNAc
# Outline: as §1
# [14] = biological target: Kdn(a2-3)Gal(b1-3)GalNAc
# Outline: as §1
# [15] = biological target: Kdn(a2-3)Gal(b1-3)GlcNAc
# Outline: as §1
# [16] = biological target: Kdn(a2-3)Gal(b1-4)Glc
# Outline: as §1
# [17] = biological target: Kdn(a2-3)Gal(b1-4)GlcNAc
# Outline: as §1
# [18] = biological target: Kdn(a2-3)Gal(b1-4)[Fuc(a1-3)]GlcNAc
# Outline: as §1
# [19] = biological target: Kdn(a2-6)Gal(b1-4)GlcNAc
# Outline: as §1
# [20] = biological target: Man(a1-2)Man(a1-2)Man(a1-3)Man
# Outline: as §1
# [21] = biological target: Man(a1-2)Man(a1-2)Man(a1-6)[Man(a1-3)]Man
# Outline: as §1
# [22] = biological target: Man(a1-2)Man(a1-3)Man
# Outline: as §1
# [23] = biological target: Man(a1-2)Man(a1-3)[Man(a1-2)Man(a1-6)]Man
# Outline: as §1
# [24] = biological target: Man(a1-2)Man(a1-3)[Man(a1-2)Man(a1-6)]Man(a1-6)[Man(a1-2)Man(a1-2)Man(a1-3)]Man
# Outline: as §1
# [25] = biological target: Man(a1-2)Man(a1-3)[Man(a1-2)Man(a1-6)]Man(a1-6)[Man(a1-2)Man(a1-2)Man(a1-3)]Man(b1-4)GlcNAc(b1-4)GlcNAc
# Outline: as §1
# [26] = biological target: Man(a1-2)Man(a1-3)[Man(a1-6)]Man(a1-6)[Man(a1-2)Man(a1-3)]Man(b1-4)GlcNAc(b1-4)GlcNAc
# Outline: as §1
# [27] = biological target: Man(a1-2)Man(a1-6)[Man(a1-3)]Man(a1-6)[Man(a1-2)Man(a1-2)Man(a1-3)]Man
# Outline: as §1
# [28] = biological target: Man(a1-2)Man(a1-6)[Man(a1-3)]Man(a1-6)[Man(a1-2)Man(a1-2)Man(a1-3)]Man(b1-4)GlcNAc(b1-4)GlcNAc
# Outline: as §1
# [29] = biological target: Man(a1-3)[Man(a1-6)]Man
# Outline: as §1
# [30] = biological target: Man(a1-3)[Man(a1-6)]Man(a1-6)[Man(a1-2)Man(a1-3)]Man(b1-4)GlcNAc(b1-4)GlcNAc
# Outline: as §1
# [31] = biological target: Man(a1-3)[Man(a1-6)]Man(a1-6)[Man(a1-3)]Man
# Outline: as §1
# [32] = biological target: Man(a1-3)[Man(a1-6)]Man(a1-6)[Man(a1-3)]Man(b1-4)GlcNAc(b1-4)GlcNAc
# Outline: as §1
# [33] = biological target: Man(a1-3)[Man(a1-6)]Man(b1-4)GlcNAc(b1-4)GlcNAc
# Outline: as §1
# [34] = biological target: Man(a1-3)[Man(a1-6)]Man(b1-4)GlcNAc(b1-4)[Fuc(a1-6)]GlcNAc
# Outline: as §1
# [35] = biological target: Man(a1-6)Man
# Outline: as §1
# [36] = biological target: Man(b1-4)GlcNAc
# Outline: as §1
# [37] = biological target: MurNAc(b1-4)GlcNAc
# Outline: as §1
# [38] = biological target: Neu5Ac(a2-3)Gal
# Outline: as §1
binder,measurement,setting,value
B1,glycan array binding signal (z-score),[1],-0.844
same,glycan array binding signal (z-score),[2],1.35
same,glycan array binding signal (z-score),[3],0.138
same,glycan array binding signal (z-score),[4],-0.637
same,glycan array binding signal (z-score),[5],-0.479
same,glycan array binding signal (z-score),[6],-0.621
same,glycan array binding signal (z-score),[7],0.123
same,glycan array binding signal (z-score),[8],-0.792
same,glycan array binding signal (z-score),[9],-0.704
same,glycan array binding signal (z-score),[10],-0.564
same,glycan array binding signal (z-score),[11],-0.73
same,glycan array binding signal (z-score),[12],-0.54
same,glycan array binding signal (z-score),[13],-0.198
same,glycan array binding signal (z-score),[14],-0.773
same,glycan array binding signal (z-score),[15],0.83
same,glycan array binding signal (z-score),[16],-0.26
same,glycan array binding signal (z-score),[17],-0.895
same,glycan array binding signal (z-score),[18],-0.158
same,glycan array binding signal (z-score),[19],-0.687
same,glycan array binding signal (z-score),[20],4.88
same,glycan array binding signal (z-score),[21],-0.561
same,glycan array binding signal (z-score),[22],-0.177
same,glycan array binding signal (z-score),[23],-0.987
same,glycan array binding signal (z-score),[24],-0.88
same,glycan array binding signal (z-score),[25],-0.287
same,glycan array binding signal (z-score),[26],-0.305
same,glycan array binding signal (z-score),[27],1.04
same,glycan array binding signal (z-score),[28],-0.731
same,glycan array binding signal (z-score),[29],-0.855
same,glycan array binding signal (z-score),[30],-0.564
same,glycan array binding signal (z-score),[31],-0.202
same,glycan array binding signal (z-score),[32],-0.139
same,glycan array binding signal (z-score),[33],-0.828
same,glycan array binding signal (z-score),[34],-0.382
same,glycan array binding signal (z-score),[35],1.94
same,glycan array binding signal (z-score),[36],-0.752
same,glycan array binding signal (z-score),[37],-0.095
same,glycan array binding signal (z-score),[38],-0.143

# A second format for some results above.
binder | measurement | setting | value
B1 | glycan array binding signal (z-score) | [2] | 1.35
same | glycan array binding signal (z-score) | [27] | 1.04
